In one test the test system is more than 140 cell lines. As to the kind of experiment: cells. The conditions noted are these: 72 h.
Test [1] deals with Millipore panel of 50 diverse kinases. The conditions noted are these: cited from earlier work.
The test system of a further test is 511 tumor cell lines. Description: cells. The conditions noted are these: read-out: EC50 (50% growth inhibition).

Where two headings read alike, the source gives them in different places.

As usually defined, the IC50 is the concentration that gives 50% inhibition. The term EC50 denotes the concentration needed to bring the measured effect to its halfway point. In the case of `CCc1cnn2c(NCc3ccc[n+]([O-])c3)cc(N3CCCC[C@H]3CCO)nc12` [SCH 727965 (Dinaciclib)], the IC50 is no more than 25 nM with more than 140 cell lines and greater than 10000 nM in test [1]. Also, the EC50 is less than 20 nM in the test on 511 tumor cell lines (96 h) and 5 to 45 nM with 511 tumor cell lines.
